Source: paper doi:10.1101/2021.12.08.471779
Substitutions are numbered along the chain they refer to. These are yes or no findings as the source states them, for the method shown. Binding seen in cells or lysates may run through a third protein. Some binding calls cover weakened binding; strength is not graded here.

The chains behind the UniProt entries cited, without tags or fusion partners. Where a name states a change or a piece, a line headed by the entry shows the natural chain unless it says otherwise.
UniProt P02929, whole entry, looked up, stated change not applied: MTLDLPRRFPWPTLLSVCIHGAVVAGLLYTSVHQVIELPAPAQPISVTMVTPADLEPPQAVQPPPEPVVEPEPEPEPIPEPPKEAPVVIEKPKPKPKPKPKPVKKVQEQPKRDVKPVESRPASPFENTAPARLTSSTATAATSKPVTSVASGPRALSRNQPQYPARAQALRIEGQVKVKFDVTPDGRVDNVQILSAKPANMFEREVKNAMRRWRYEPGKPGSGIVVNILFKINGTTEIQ

Columns and labels:
Assay in all cases: cross-linking
[1] = molecular target: T1, FepA E120C (Escherichia coli K-12) (UniProt P05825)
T1 sequence: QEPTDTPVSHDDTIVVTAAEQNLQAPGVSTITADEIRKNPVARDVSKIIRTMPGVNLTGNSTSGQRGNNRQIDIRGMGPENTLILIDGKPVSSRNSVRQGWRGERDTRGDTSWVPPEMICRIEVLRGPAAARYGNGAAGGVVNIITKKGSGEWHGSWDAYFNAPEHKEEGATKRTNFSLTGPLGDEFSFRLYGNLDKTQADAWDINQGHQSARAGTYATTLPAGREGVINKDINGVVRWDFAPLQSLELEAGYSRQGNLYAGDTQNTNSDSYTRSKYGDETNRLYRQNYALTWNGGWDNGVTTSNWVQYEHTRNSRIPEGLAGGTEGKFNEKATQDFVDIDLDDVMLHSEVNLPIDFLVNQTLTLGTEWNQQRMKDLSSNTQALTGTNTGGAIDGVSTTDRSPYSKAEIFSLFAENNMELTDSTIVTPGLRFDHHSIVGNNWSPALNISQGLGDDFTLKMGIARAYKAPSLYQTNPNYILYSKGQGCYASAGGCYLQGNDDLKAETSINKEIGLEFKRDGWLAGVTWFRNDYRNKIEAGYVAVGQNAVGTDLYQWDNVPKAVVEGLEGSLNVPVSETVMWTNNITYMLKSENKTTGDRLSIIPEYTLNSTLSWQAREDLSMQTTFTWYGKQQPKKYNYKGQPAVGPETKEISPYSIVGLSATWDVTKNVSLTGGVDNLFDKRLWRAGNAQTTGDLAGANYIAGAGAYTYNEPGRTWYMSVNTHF

[2] = molecular target: T2, FepA I145C (Escherichia coli K-12) (UniProt P05825)
T2 sequence: T1 sequence with C120E, I145C

[3] = molecular target: T3, FepA T17C (Escherichia coli K-12) (UniProt P05825)
T3 sequence: T1 sequence with T17C, C120E

| Substance | binding [1] | binding [2] | binding [3] |
| --- | --- | --- | --- |
| TonB C18G A209C (from UniProt P02929 1-239) | no binding | no binding | no binding |
| TonB C18G H20A Q160C (from UniProt P02929 1-239) | – | – | binds |
| TonB C18G H20A V206C (from UniProt P02929 1-239) | – | – | no binding |
| TonB C18G H20A R212C (from UniProt P02929 1-239) | – | – | no binding |
| TonB C18G R214C (from UniProt P02929 1-239) | no binding | no binding | – |
| TonB C18G H20A R204C (from UniProt P02929 1-239) | – | – | no binding |
| TonB C18G R204C (from UniProt P02929 1-239) | no binding | no binding | binds |
| TonB C18G H20A A209C (from UniProt P02929 1-239) | – | – | no binding |
| TonB C18G R212C (from UniProt P02929 1-239) | no binding | no binding | binds |
| TonB C18G M201C (from UniProt P02929 1-239) | no binding | no binding | – |
| TonB C18G N208C (from UniProt P02929 1-239) | no binding | no binding | no binding |
| TonB C18G Q160C (from UniProt P02929 1-239) | no binding | no binding | binds |
| TonB C18G V206C (from UniProt P02929 1-239) | no binding | no binding | no binding |
